1 molecule from patent US20210198374A1 can be followed below.

Results are given in words; binding and its absence hold for the method and conditions named. Binding can be weak; no strength is given.

Assay [1] deals with recombinant cynomolgus CD27-FLAG-HIS (cynomolgus). The assay is described as follows: ELISA; plate coated with recombinant cynomolgus CD27-FLAG-HIS (legend of FIG. 2). On the technique in general: ELISA stands for enzyme-linked immunosorbent assay.
For assay [2] the target is unchanged. Description: ELISA; plate coated with recombinant cynomolgus CD27-FLAG-HIS; hybridoma supernatants, anti-rat IgG Fc-HRP detection.

B1: 2B3 (antibody, V domains shown)
VH: QVQLVQSGAEVKKPGASVKVSCKASGYTFTGYYIHWVRQAPGQGLEWMGWINPNSGGTNSAQKFQDRVTITRVTSINTAYMELSRLRSDDTAVYFCARDRLVLPWFGEIFPDAFDIWGQGTLVTVSS
VL: EIVMTQSPATLSVSPGERATLSCRASQSIRSNLAWYQQKPGQAPRLLIYGASTRATGIPARFSGSGSGTEFTLTISSLQSENFAVYYCQQYNNWPLTFGGGTKVEIK
For the molecule B1, the binding entry in assay [1] and in assay [2] was “binds” in each case.
